Measurements reported in doi:10.1101/137711.
No constants are given. Whether binding was seen depends on the method and setting. Some results given as binding are weak or reduced against the parent protein; the word gives no strength. For part of these data: Where a sequence is shown, tags or fusion partners need not be part of it.

T1: Brn1 kleisin subunit of condensin, Brn1-HA3-His12 (S. cerevisiae) (UniProt P38170)
T1 sequence: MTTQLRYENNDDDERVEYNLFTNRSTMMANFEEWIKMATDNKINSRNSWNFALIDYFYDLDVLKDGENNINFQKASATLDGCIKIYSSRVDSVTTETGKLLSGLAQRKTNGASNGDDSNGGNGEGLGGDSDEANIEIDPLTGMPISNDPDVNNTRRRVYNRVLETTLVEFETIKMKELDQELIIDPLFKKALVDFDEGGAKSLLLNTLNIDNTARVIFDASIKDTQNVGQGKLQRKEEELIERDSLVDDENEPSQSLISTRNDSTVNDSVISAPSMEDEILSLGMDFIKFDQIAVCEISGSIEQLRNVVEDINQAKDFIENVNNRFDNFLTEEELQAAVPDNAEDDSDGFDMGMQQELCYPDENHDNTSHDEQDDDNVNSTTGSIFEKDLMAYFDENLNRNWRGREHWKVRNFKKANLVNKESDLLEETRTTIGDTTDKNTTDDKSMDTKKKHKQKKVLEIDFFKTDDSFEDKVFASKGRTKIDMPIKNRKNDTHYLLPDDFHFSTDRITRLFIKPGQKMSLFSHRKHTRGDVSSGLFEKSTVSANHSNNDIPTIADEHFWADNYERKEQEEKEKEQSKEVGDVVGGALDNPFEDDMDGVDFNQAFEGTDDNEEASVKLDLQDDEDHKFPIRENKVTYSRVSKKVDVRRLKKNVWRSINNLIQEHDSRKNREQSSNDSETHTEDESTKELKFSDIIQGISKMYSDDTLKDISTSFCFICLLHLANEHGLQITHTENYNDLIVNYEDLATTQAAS

T2: Smc4 subunit of condensin, Smc4-StrepII3 (wild-type) (S. cerevisiae) (UniProt Q12267)
T2 sequence: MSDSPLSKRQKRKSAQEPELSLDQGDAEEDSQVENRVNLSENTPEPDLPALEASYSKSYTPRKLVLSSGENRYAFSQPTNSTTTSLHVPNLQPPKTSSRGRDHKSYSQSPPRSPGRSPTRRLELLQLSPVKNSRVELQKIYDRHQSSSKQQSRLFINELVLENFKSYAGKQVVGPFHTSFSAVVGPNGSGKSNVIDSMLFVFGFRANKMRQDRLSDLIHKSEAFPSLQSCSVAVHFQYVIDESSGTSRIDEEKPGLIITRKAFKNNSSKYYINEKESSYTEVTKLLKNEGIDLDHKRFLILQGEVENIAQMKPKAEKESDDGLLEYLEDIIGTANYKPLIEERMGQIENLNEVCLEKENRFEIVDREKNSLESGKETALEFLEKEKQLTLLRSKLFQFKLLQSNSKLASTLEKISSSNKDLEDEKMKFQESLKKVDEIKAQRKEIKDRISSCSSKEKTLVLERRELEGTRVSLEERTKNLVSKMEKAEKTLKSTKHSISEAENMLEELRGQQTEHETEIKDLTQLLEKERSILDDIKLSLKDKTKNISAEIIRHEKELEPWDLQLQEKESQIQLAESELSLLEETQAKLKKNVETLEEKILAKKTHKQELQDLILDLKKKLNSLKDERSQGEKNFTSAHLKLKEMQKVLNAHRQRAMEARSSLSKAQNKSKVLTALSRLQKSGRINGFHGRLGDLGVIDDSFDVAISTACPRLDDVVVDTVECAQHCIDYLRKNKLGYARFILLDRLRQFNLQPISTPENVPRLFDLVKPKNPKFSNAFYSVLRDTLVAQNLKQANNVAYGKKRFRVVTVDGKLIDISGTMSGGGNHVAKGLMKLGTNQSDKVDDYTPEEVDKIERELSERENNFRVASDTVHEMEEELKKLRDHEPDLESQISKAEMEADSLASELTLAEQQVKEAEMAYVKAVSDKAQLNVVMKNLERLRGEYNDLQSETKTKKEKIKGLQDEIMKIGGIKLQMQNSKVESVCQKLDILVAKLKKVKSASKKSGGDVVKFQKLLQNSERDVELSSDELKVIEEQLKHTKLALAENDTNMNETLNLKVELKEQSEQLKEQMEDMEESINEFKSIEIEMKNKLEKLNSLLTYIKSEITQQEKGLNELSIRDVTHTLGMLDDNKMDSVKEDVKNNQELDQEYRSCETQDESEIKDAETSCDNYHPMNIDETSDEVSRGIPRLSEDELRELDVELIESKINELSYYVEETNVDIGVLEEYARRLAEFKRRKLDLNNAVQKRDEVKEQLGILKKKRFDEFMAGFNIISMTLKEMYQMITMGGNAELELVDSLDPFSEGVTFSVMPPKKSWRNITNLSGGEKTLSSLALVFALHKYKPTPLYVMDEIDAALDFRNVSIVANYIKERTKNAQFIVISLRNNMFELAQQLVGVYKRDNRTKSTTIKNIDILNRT

T3: Smc4 subunit of condensin, Smc4-StrepII3 (wild-type) (S. cerevisiae), Q12267
T3 chain: T2 sequence

B1: Smc2 subunit of condensin (wild-type) (protein, UniProt P38989 1-1170)
chain: MKVEELIIDGFKSYATRTVITDWDPQFNAITGLNGSGKSNILDAICFVLGIASMSTVRASSLQDLIYKRGQAGVTKASVTIVFDNTDKSNSPIGFTNSPQISVTRQVVLGGTSKYLINGHRAPQQSVLQLFQSVQLNINNPNFLIMQGKITKVLNMKPSEILSLIEEAAGTKMFEDRREKAERTMSKKETKLQENRTLLTEEIEPKLEKLRNEKRMFLEFQSTQTDLEKTERIVVSYEYYNIKHKHTSIRETLENGETRMKMLNEFVKKTSEEIDSLNEDVEEIKLQKEKELHKEGTISKLENKENGLLNEISRLKTSLSIKVENLNDTTEKSKALESEIASSSAKLIEKKSAYANTEKDYKMVQEQLSKQRDLYKRKEELVSTLTTGISSTGAADGGYNAQLAKAKTELNEVSLAIKKSSMKMELLKKELLTIEPKLKEATKDNELNVKHVKQCQETCDKLRARLVEYGFDPSRIKDLKQREDKLKSHYYQTCKNSEYLKRRVTNLEFNYTKPYPNFEASFVHGVVGQLFQIDNDNIRYATALQTCAGGRLFNVVVQDSQTATQLLERGRLRKRVTIIPLDKIYTRPISSQVLDLAKKIAPGKVELAINLIRFDESITKAMEFIFGNSLICEDPETAKKITFHPKIRARSITLQGDVYDPEGTLSGGSRNTSESLLVDIQKYNQIQKQIETIQADLNHVTEELQTQYATSQKTKTIQSDLNLSLHKLDLAKRNLDANPSSQIIARNEEILRDIGECENEIKTKQMSLKKCQEEVSTIEKDMKEYDSDKGSKLNELKKELKLLAKELEEQESESERKYDLFQNLELETEQLSSELDSNKTLLHNHLKSIESLKLENSDLEGKIRGVEDDLVTVQTELNEEKKRLMDIDDELNELETLIKKKQDEKKSSELELQKLVHDLNKYKSNTNNMEKIIEDLRQKHEFLEDFDLVRNIVKQNEGIDLDTYRERSKQLNEKFQELRKKVNPNIMNMIENVEKKEAALKTMIKTIEKDKMKIQETISKLNEYKRETLVKTWEKVTLDFGNIFADLLPNSFAKLVPCEGKDVTQGLEVKVKLGNIWKESLIELSGGQRSLIALSLIMALLQFRPAPMYILDEVDAALDLSHTQNIGHLIKTRFKGSQFIVVSLKEGMFANANRVFRTRFQDGTSVVSIM
B2: Ycg1 HEAT-repeat subunit of condensin, Q06680 1-1035 (protein)
chain: MQDPDGIDINTKIFNSVAEVFQKAQGSYAGHRKHIAVLKKIQSKAVEQGYEDAFNFWFDKLVTKILPLKKNEIIGDRIVKLVAAFIASLERELILAKKQNYKLTNDEEGIFSRFVDQFIRHVLRGVESPDKNVRFRVLQLLAVIMDNIGEIDESLFNLLILSLNKRIYDREPTVRIQAVFCLTKFQDEEQTEHLTELSDNEENFEATRTLVASIQNDPSAEVRRAAMLNLINDNNTRPYILERARDVNIVNRRLVYSRILKSMGRKCFDDIEPHIFDQLIEWGLEDRELSVRNACKRLIAHDWLNALDGDLIELLEKLDVSRSSVCVKAIEALFQSRPDILSKIKFPESIWKDFTVEIAFLFRAIYLYCLDNNITEMLEENFPEASKLSEHLNHYILLRYHHNDISNDSQSHFDYNTLEFIIEQLSIAAERYDYSDEVGRRSMLTVVRNMLALTTLSEPLIKIGIRVMKSLSINEKDFVTMAIEIINDIRDDDIEKQEQEEKIKSKKINRRNETSVDEEDENGTHNDEVNEDEEDDNISSFHSAVENLVQGNGNVSESDIINNLPPEKEASSATIVLCLTRSSYMLELVNTPLTENILIASLMDTLITPAVRNTAPNIRELGVKNLGLCCLLDVKLAIDNMYILGMCVSKGNASLKYIALQVIVDIFSVHGNTVVDGEGKVDSISLHKIFYKVLKNNGLPECQVIAAEGLCKLFLADVFTDDDLFETLVLSYFSPINSSNEALVQAFAFCIPVYCFSHPAHQQRMSRTAADILLRLCVLWDDLQSSVIPEVDREAMLKPNIIFQQLLFWTDPRNLVNQTGSTKKDTVQLTFLIDVLKIYAQIEKKEIKKMIITNINAIFLSSEQDYSTLKELLEYSDDIAENDNLDNVSKNALDKLRNNLNSLIEEINERSETQTKDENNTANDQYSSILGNSFNKSSNDTIEHAADITDGNNTELTKTTVNISAVDNTTEQSNSRKRTRSEAEQIDTSKNLENMSIQDTSTVAKNVSFVLPDEKSDAMSIDEEDKDSESFSEVC

Assays:
Experiment in all cases: tandem affinity co-purification + SEC
[1] = biological target: T1, Brn1 kleisin subunit of condensin, Brn1-HA3-His12 (S. cerevisiae)
[2] = biological target: T2, Smc4 subunit of condensin, Smc4-StrepII3 (wild-type) (S. cerevisiae)
[3] = biological target: T3, Smc4 subunit of condensin, …; conditions: remark: other sources report otherwise

Binder	binding [1]	binding [2]	binding [3]
B1	binds	binds	–
B2	–	–	binds
